In PubChem BioAssay AID540256 (National Center for Advancing Translational Sciences (NCATS), 2011):
Screen size: about 300,000 compounds; about 3,700 (1.2%) were called active. Inconclusive means that the source gave no clear call. Such entries were picked first, then a sample of the others. The call rests on the fitted dose curve; tested in HEK293 cells. Potencies beside an inconclusive call are fits to weak or partial responses and may not hold up.

test: qHTS for Inhibitors of binding or entry into cells for Lassa Virus; settings: Lassa virus pseudotype entry inhibition, cell reporter; activity change, negative = inhibition: at 37.9 µM (top of the series) unless noted; further: nearly all actives have a fitted effect of over 50% in size
On the % scale 0 is the no-effect control and ±100 the full control effect; potency means the concentration at half of the fitted maximal effect.

Which Potency does the source give for Cc1cc(OCC(=O)NCC(c2cccs2)N2CCOCC2)ccc1C(C)C (configuration not stated) here?
Its Potency is inconclusive: 14.1 µM [inhibitor, partial curve, poor fit].

Which “activity change, negative = inhibition” value does the source give for CC(=O)N1CCc2cc(S(=O)(=O)CCC(=O)Nc3ccc(C)cc3Br)ccc21 here?
The value was inactive: 18.3% [at 46.1 µM].

For CCN(CC)c1ccc(NC(=O)c2cnn(-c3ccccc3)c2-n2cccc2)c(C)c1, which “activity change, negative = inhibition” value is on record?
Its value is inactive: 5.14% [at 46.1 µM].

For Cc1ccccc1OCc1nc2ccccc2c(=O)n1/N=C/c1cn[nH]c1-c1ccccc1, which Potency is on record?
The Potency was active: 10 µM.

Which Potency does the source give for CC(=O)OC(C)(C)/C=C/C(=O)[C@](C)(O)[C@H]1[C@H](O)C[C@@]2(C)[C@@H]3CC=C4[C@H](C[C@H](O)C(=O)C4(C)C)[C@]3(C)C(=O)C[C@]12C here?
Its Potency is active: 0.291 µM.

With Cc1cc(C)c(C#N)c(SCS(=O)Cc2ccccc2)n1 (configuration not stated) as the molecule, how does the “activity change, negative = inhibition” value read?
Its value is inactive: -14.2%.

With COc1ccc(-n2nc3cc(N)c(Br)cc3n2)cc1 as the molecule, how does the Potency read?
The Potency was inconclusive: 2 µM [activator, partial curve, poor fit].

With COc1cccc(OCCn2cc(C=O)c3ccccc32)c1 as the molecule, how does the Potency read?
The Potency was inconclusive: 3.16 µM [activator, full curve].

For CCc1nc2ccc(C(=O)NCc3cc(OC)ccc3OC)cc2nc1CC, which “activity change, negative = inhibition” value is on record?
The value was inactive: -19.6% [at 46.1 µM].

Which Potency does the source give for CCOc1ccc(N2CC(c3nc4ccccc4n3CCOc3ccccc3OC)CC2=O)cc1 (configuration not stated) here?
The Potency was inconclusive: 35.5 µM [inhibitor, single point].

With COc1ccc(Cn2c(O)c(C=NCCN3CCOCC3)c(=O)[nH]c2=O)cc1 as the molecule, how does the Potency read?
The Potency was inconclusive: 8.91 µM [inhibitor, partial curve].

With O=C(Nc1ccccc1Cc1ccccc1)c1ccccc1NS(=O)(=O)c1ccc(Cl)s1 as the molecule, how does the Potency read?
Its Potency is inconclusive: 18.4 µM [inhibitor, single point].

For Cc1cccc(OC(=O)c2ccc3nccnc3c2)c1, which “activity change, negative = inhibition” value is on record?
The value was inactive: -4.15%.

With CCOc1ccc(/C=C/C(=O)Nc2ccc(OC)cc2[N+](=O)[O-])cc1 as the molecule, how does the “activity change, negative = inhibition” value read?
Its value is inactive: -0.299%.

For Cc1cccc(NS(=O)(=O)c2ccc3c(c2)CC(C)N3C(=O)C2CCC2)c1C (configuration not stated), which Potency is on record?
Its Potency is inconclusive: 15.8 µM [inhibitor, single point].

With CCc1ccc(CNc2ccc3c(c2)ncn3C(C)(C)C)cc1 as the molecule, how does the Potency read?
The Potency was active: 1.78 µM.

For Cc1ccc(-c2nc3ncccn3c2Nc2ccc3c(c2)OCCO3)cc1, which Potency is on record?
Its Potency is “inactive”.

Which “activity change, negative = inhibition” value does the source give for O=C(CCS(=O)(=O)c1ccc(Br)cc1)Nc1ccc(F)cc1F here?
Its value is inactive: 19.2% [at 46.1 µM].

Which Potency does the source give for CCCOC(=O)c1cccc(NC(=O)C(C)(C)C)c1 here?
The Potency was inconclusive: 14.6 µM [inhibitor, single point].

Which Potency does the source give for Cc1ccc(CNC(=O)CS(=O)(=O)c2cccc3nsnc23)cc1 here?
Its Potency is inconclusive: 1.41 µM [inhibitor, partial curve, poor fit].

For CC(C)CC(=O)NC(=S)Nc1ccc(N2CCOCC2)c(Cl)c1, which Potency is on record?
The Potency was inconclusive: 35.5 µM [inhibitor, single point].

For CCN(Cc1ccccc1)CC(O)COC(c1ccc(OC)cc1)c1ccc(OC)cc1 (configuration not stated), which Potency is on record?
Its Potency is inconclusive: 35.5 µM [inhibitor, single point].

With O=C1CCC(C(=O)N(CCO)Cc2ccccc2)CN1CC1CCCCC1 (configuration not stated) as the molecule, how does the Potency read?
The Potency was inconclusive: 0.0891 µM [inhibitor, full curve, poor fit].

With COc1ccc(/C(O)=C2/C(=O)C(=O)N(CCN3CCNCC3)C2c2cccc([N+](=O)[O-])c2)cc1 (configuration not stated) as the molecule, how does the “activity change, negative = inhibition” value read?
The value was inactive: 16.8%.

For COCCCNC(=S)NCCCNc1nc2cc(C)cc(C)c2cc1C#N, which Potency is on record?
Its Potency is inconclusive: 35.5 µM [inhibitor, single point].

Which Potency does the source give for O=S(=O)(NCCC1=CCCCC1)c1ccc(Br)cc1 here?
The Potency was inconclusive: 35.5 µM [inhibitor, single point].

With COc1ccc(-c2nc(-c3ccccc3)c(Nc3ccc4ccccc4c3)o2)cc1 as the molecule, how does the Potency read?
The Potency was inconclusive: 2.99 µM [inhibitor, single point].

Which Potency does the source give for Cc1cccc(NC(=O)c2cc(-c3cc(Cl)ccc3O)n[nH]2)c1 here?
The Potency was inconclusive: 2.82 µM [activator, single point].

With COc1ccc(OC)c(C2NC(=S)NC(C)=C2C(=O)Nc2ccccn2)c1 (configuration not stated) as the molecule, how does the “activity change, negative = inhibition” value read?
The value was inactive: 8.77%.

With CCN(c1ccccc1)S(=O)(=O)c1ccc(OC)c(NC(=O)CNC)c1 as the molecule, how does the Potency read?
Its Potency is inconclusive: 2.82 µM [inhibitor, partial curve, poor fit].

For CCOc1ccc(NC(=O)CCc2c(C)nn(-c3ccc(N4CCCC4)nn3)c2C)cc1, which “activity change, negative = inhibition” value is on record?
Its value is inactive: 3.23% [at 46.1 µM].

Which Potency does the source give for O=C(Nc1nn(Cc2ccc(Cl)cc2)cc1Br)c1ccc(COc2ccccc2Cl)o1 here?
Its Potency is inconclusive: 20 µM [inhibitor, partial curve, poor fit].

For COCCn1c(=S)[nH]c2cc(C(=O)N3CCN(Cc4ccc5c(c4)OCO5)CC3)ccc2c1=O, which Potency is on record?
Its Potency is inconclusive: 7.3 µM [inhibitor, partial curve].

Which Potency does the source give for COc1ccc(N=C2C(=O)Nc3ccccc32)cc1 here?
The Potency was inconclusive: 11.6 µM [inhibitor, partial curve].

Which “activity change, negative = inhibition” value does the source give for CCCCc1cc(=O)oc2cc(C)cc(OC(C)C(=O)O)c12 (configuration not stated) here?
Its value is inactive: 21%.

With CCOc1ccc(NC(=S)N/N=C(\C)Cc2ccc(OC)cc2)cc1 as the molecule, how does the Potency read?
The Potency was inconclusive: 1.12 µM [inhibitor, full curve, poor fit].

With Nc1c(N(C(=O)Nc2ccc(Cl)c(Cl)c2)C2CCCC2)c(=O)[nH]c(=O)n1Cc1ccccc1 as the molecule, how does the Potency read?
The Potency was inconclusive: 22.4 µM [inhibitor, partial curve, poor fit].

For CC(c1ccccn1)N(CCN(C)C)C(=S)Nc1cccc(F)c1 (configuration not stated), which Potency is on record?
The Potency was inconclusive: 7.3 µM [inhibitor, partial curve, poor fit].

For C(=C\c1ccccc1)/CSc1nnc(-c2ccccn2)n1Cc1ccco1, which Potency is on record?
Its Potency is inconclusive: 5.01 µM [inhibitor, partial curve].

For C=CCN1CC[C@]23c4c5ccc(O)c4O[C@H]2/C(=N/NC(=O)c2ccccc2)CC[C@@]3(O)[C@H]1C5, which Potency is on record?
Its Potency is inconclusive: 18.3 µM [inhibitor, single point].

Which Potency does the source give for Nc1nc(-c2ccccc2)cc(N2CCCCC2)n1 here?
Its Potency is inconclusive: 18.3 µM [inhibitor, single point].

With CC1(C)CC(=O)C/C(=N/NC(=O)c2ccc(-c3ccccc3)cc2)C1 as the molecule, how does the Potency read?
The Potency was inconclusive: 11.2 µM [inhibitor, partial curve, poor fit].

Which Potency does the source give for COc1ccc(-c2noc(CSc3nc(N)c(-c4ccccc4)c(=O)[nH]3)n2)cc1 here?
Its Potency is inconclusive: 0.092 µM [activator, full curve, poor fit].

With CCCCCCCCCCCCCCCC[n+]1cccc(C(=O)N(CC)CC)c1 as the molecule, how does the Potency read?
Its Potency is active: 11.2 µM.

With Cc1ccc(C(=O)N2C(=S)C(c3ccc(F)cc3)=NC23CCN(C)CC3)cc1 as the molecule, how does the Potency read?
The Potency was inconclusive: 20 µM [inhibitor, single point].

For Cc1ccc(C)c(Nc2cc(C(=O)NC3CCCC3)c3ccccc3n2)c1, which “activity change, negative = inhibition” value is on record?
The value was inactive: 10.6% [at 46.1 µM].

For O=c1c2cc(Cl)ccc2[nH]c(=S)n1Cc1cccs1, which Potency is on record?
Its Potency is inconclusive: 0.259 µM [activator, single point].

For Cc1ccc(CNC(=O)c2cc3c(=O)n(Cc4ccco4)ccc3nc2C)cc1, which Potency is on record?
Its Potency is inconclusive: 8.91 µM [inhibitor, partial curve, poor fit].

For COCCCNC(=O)c1sc2ncnc(N3CCc4ccccc4C3)c2c1C, which Potency is on record?
Its Potency is inconclusive: 23.1 µM [inhibitor, partial curve].

Which “activity change, negative = inhibition” value does the source give for Cc1ccccc1NCCC(=O)Nc1ccc(F)cc1 here?
The value was inactive: -9.8% [at 46.1 µM].

Which Potency does the source give for O=C(Cn1ccc([N+](=O)[O-])n1)Nc1nccs1 here?
The Potency was inconclusive: 11.2 µM [activator, partial curve].

With COC(=O)c1ccc(NC(=O)c2ccc(F)cc2)o1 as the molecule, how does the “activity change, negative = inhibition” value read?
The value was inactive: 19.6%.

Which Potency does the source give for COc1ccc(CCNC(=O)Cc2c(C)c3cc4c(C(C)(C)C)coc4c(C)c3oc2=O)cc1 here?
Its Potency is inconclusive: 11.2 µM [activator, partial curve, poor fit].

For C=CCn1c(C2CCCCC2)n[nH]c1=S, which “activity change, negative = inhibition” value is on record?
Its value is inactive: -1.59%.

For Cc1ccc(-n2c(C)nnc2SCC(=O)Nc2ccccc2)cc1, which Potency is on record?
Its Potency is inconclusive: 22.4 µM [inhibitor, partial curve, poor fit].

Which Potency does the source give for Cc1cc(C)cc(NC(=O)CC23CC4CC(C2)CC(n2nnc(C)n2)(C4)C3)c1 here?
Its Potency is inconclusive: 23.1 µM [inhibitor, partial curve, poor fit].

Which Potency does the source give for Cc1ccc(S(=O)(=O)N(C)Cc2ccc(C(=O)N/N=C/c3ccc(OC(F)F)cc3)cc2)cc1 here?
Its Potency is inconclusive: 12.6 µM [inhibitor, partial curve, poor fit].

For CCCCCCN1C[C@@H](n2cc(C3CC3)nn2)[C@H](O)C[C@H]1c1ccc(OC)cc1, which Potency is on record?
Its Potency is inconclusive: 35.3 µM [inhibitor, single point].

Which Potency does the source give for COc1ccc(-c2csc(N(CC3CCCO3)C(=O)c3ccco3)n2)cc1 (configuration not stated) here?
Its Potency is inconclusive: 29.1 µM [inhibitor, single point].

For CC(C)Oc1ccc(/C=N/NC(N)=S)cc1, which Potency is on record?
Its Potency is inconclusive: 35.5 µM [inhibitor, single point].

Which “activity change, negative = inhibition” value does the source give for COc1cccc(C(=O)NC(=S)Nc2ccc(N(C)C)cc2)c1 here?
The value was inactive: -13.2%.

For Cc1cc(C)cc(NC(=O)Nc2cc(S(=O)(=O)N(C)C)ccc2C)c1, which Potency is on record?
The Potency was active: 12.6 µM.

With COc1ccc(NS(=O)(=O)c2ccc(N3CCCC3)c(NC(=S)Nc3ccc(SC(F)F)cc3)c2)cc1 as the molecule, how does the Potency read?
Its Potency is inconclusive: 11.2 µM [inhibitor, partial curve, poor fit].

With Cc1ccccc1NS(=O)(=O)c1cc(C(=O)Nc2cccc(N(C)S(C)(=O)=O)c2)ccc1C as the molecule, how does the Potency read?
Its Potency is inconclusive: 20.6 µM [inhibitor, single point].

With CN(C1CCCCC1)S(=O)(=O)c1ccc2c(c1)c(=O)c(C(=O)N1CCN(c3ccccc3)CC1)cn2C as the molecule, how does the “activity change, negative = inhibition” value read?
Its value is inactive: 8.09% [at 46.1 µM].

For Cc1ccc(NC2=C(NCCO)C(=O)c3ccccc3C2=O)cc1, which Potency is on record?
Its Potency is inconclusive: 15.8 µM [inhibitor, single point].

For Cc1cc2c(C)nc(N/N=C/c3ccc([N+](=O)[O-])cc3)nc2o1, which “activity change, negative = inhibition” value is on record?
The value was inactive: 19%.
